{"source": "PubChem BioAssay AID1259254 | NCATS, 2017", "purpose": "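Genome-wide screen for genes that prevent DNA re-replication in cancer cells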 (primary screen)", "cells": "human HCT116 colorectal cancer cells", "reagents": "single siRNA against human genes", "timing": "3 days", "measured": "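Nuclei stained with Hoechst and imaged; cell-cycle phase assigned by DNA content; G2 share scaled per plate, non-targeting siRNA 0%, GMNN siRNA 100%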", "direction": "G2 robust z-score: higher = more G2 cells, more excess DNA replication", "rule for the call": "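An siRNA counts as active if its G2 robust z-score lies at least 5 MADs above the screen median; here such calls match roughly 38% of GMNN control or more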", "note": "Here is a random part of about 59,000 reagents. About 1,550 of all reagents (2.6%) were called active. 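G2 share is only a proxy for re-replication; each gene was hit by three separate siRNAs, and active genes were retested.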 Further read-outs or replicates are left out here. The record does not give: the amount of reagent."}
{"gene symbol": "LOC642249", "PubChem SID": "SID160725535", "G2 robust z-score": 0.999, "Outcome": "inactive"}
{"gene symbol": "LOC642249", "PubChem SID": "SID160768557", "G2 robust z-score": 0.652, "Outcome": "inactive"}
{"gene symbol": "LOC642249", "PubChem SID": "SID160768558", "G2 robust z-score": -0.256, "Outcome": "inactive"}
{"gene symbol": "SPATA31G1", "PubChem SID": "SID160757616", "G2 robust z-score": 2.5, "Outcome": "inactive"}
{"gene symbol": "SPATA31G1", "PubChem SID": "SID160757617", "G2 robust z-score": 1.02, "Outcome": "inactive"}
{"gene symbol": "SPATA31G1", "PubChem SID": "SID160757618", "G2 robust z-score": -0.719, "Outcome": "inactive"}
{"gene symbol": "UMODL1", "PubChem SID": "SID160753405", "G2 robust z-score": 1.42, "Outcome": "inactive"}
{"gene symbol": "UMODL1", "PubChem SID": "SID160753406", "G2 robust z-score": 2.34, "Outcome": "inactive"}
{"gene symbol": "UMODL1", "PubChem SID": "SID160753407", "G2 robust z-score": -0.52, "Outcome": "inactive"}
{"gene symbol": "NR2E3", "PubChem SID": "SID160723692", "G2 robust z-score": 1.91, "Outcome": "inactive"}
{"gene symbol": "NR2E3", "PubChem SID": "SID160723702", "G2 robust z-score": -0.434, "Outcome": "inactive"}
{"gene symbol": "NR2E3", "PubChem SID": "SID160724236", "G2 robust z-score": -1.28, "Outcome": "inactive"}
{"gene symbol": "DCST2", "PubChem SID": "SID160756646", "G2 robust z-score": 5.68, "Outcome": "active"}
{"gene symbol": "DCST2", "PubChem SID": "SID160756647", "G2 robust z-score": -0.305, "Outcome": "inactive"}
{"gene symbol": "DCST2", "PubChem SID": "SID160756648", "G2 robust z-score": -0.61, "Outcome": "inactive"}
{"gene symbol": "CCNL2", "PubChem SID": "SID160750936", "G2 robust z-score": 1.39, "Outcome": "inactive"}
{"gene symbol": "CCNL2", "PubChem SID": "SID160750937", "G2 robust z-score": -0.457, "Outcome": "inactive"}
{"gene symbol": "CCNL2", "PubChem SID": "SID160750938", "G2 robust z-score": -1.42, "Outcome": "inactive"}
{"gene symbol": "TELO2", "PubChem SID": "SID160723362", "G2 robust z-score": 3.77, "Outcome": "inactive"}
{"gene symbol": "TELO2", "PubChem SID": "SID160723363", "G2 robust z-score": -1, "Outcome": "inactive"}
{"gene symbol": "TELO2", "PubChem SID": "SID160723364", "G2 robust z-score": 3.64, "Outcome": "inactive"}
{"gene symbol": "BAZ2B", "PubChem SID": "SID160739460", "G2 robust z-score": 0.204, "Outcome": "inactive"}
{"gene symbol": "BAZ2B", "PubChem SID": "SID160739461", "G2 robust z-score": -1.07, "Outcome": "inactive"}
{"gene symbol": "BAZ2B", "PubChem SID": "SID160739462", "G2 robust z-score": -0.348, "Outcome": "inactive"}

A portion from the list above:
{"gene symbol": "TELO2", "PubChem SID": "SID160723363", "G2 robust z-score": -1, "Outcome": "inactive"}
{"gene symbol": "TELO2", "PubChem SID": "SID160723364", "G2 robust z-score": 3.64, "Outcome": "inactive"}
{"gene symbol": "BAZ2B", "PubChem SID": "SID160739460", "G2 robust z-score": 0.204, "Outcome": "inactive"}
{"gene symbol": "BAZ2B", "PubChem SID": "SID160739461", "G2 robust z-score": -1.07, "Outcome": "inactive"}
